PubChem BioAssay AID1259424 – University of Nebraska Medical Center | 2018
Assay: 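Rank knockdowns across the genome by resemblance to the KSR1 depletion profile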 (primary screen). System: human HCT116 colon cancer cells. Reagents: siRNA pool against human genes, 50 nM. Measurement: 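Log2 levels of six mRNAs (branched-DNA multiplex), adjusted by two reference genes and the non-targeting median, then scored against the average KSR1 knockdown pattern as Pearson r and euclidean distance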. Scale: mean correlation with KSR1 profile: higher = expression change more like KSR1 knockdown; mean distance from KSR1 profile: higher = expression change less like KSR1 knockdown.
Shown is a random part of about 14,000 deposited reagents. 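Higher correlation or smaller distance means closer resemblance to KSR1 loss; control wells, including KSR1 knockdowns, recur on many plates.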 Further read-outs or replicates are left out here. Not given: the time to read-out.

CCT7 (chaperonin containing TCP1 subunit 7)
- mean correlation with KSR1 profile: -0.0861
- mean distance from KSR1 profile: 2.85

SMARCE1 (SWI/SNF related BAF chromatin remodeling complex subunit E1)
- mean correlation with KSR1 profile: -0.311
- mean distance from KSR1 profile: 4.4

CD6 (CD6 molecule)
- mean correlation with KSR1 profile: 0.589
- mean distance from KSR1 profile: 1.2

DEFB126 (defensin beta 126)
- mean correlation with KSR1 profile: 0.304
- mean distance from KSR1 profile: 3.26

POC1A (POC1 centriolar protein A)
- mean correlation with KSR1 profile: 0.413
- mean distance from KSR1 profile: 0.962

HMHB1 (histocompatibility minor HB-1)
- mean correlation with KSR1 profile: -0.539
- mean distance from KSR1 profile: 4.35

TSPAN1 (tetraspanin 1)
- mean correlation with KSR1 profile: -0.391
- mean distance from KSR1 profile: 1.99

CLN3 (CLN3 lysosomal/endosomal transmembrane protein, battenin)
- mean correlation with KSR1 profile: -0.207
- mean distance from KSR1 profile: 1.51

RAG2 (recombination activating 2)
- mean correlation with KSR1 profile: -0.696
- mean distance from KSR1 profile: 2.69

FSTL5 (follistatin like 5)
- mean correlation with KSR1 profile: -0.47
- mean distance from KSR1 profile: 1.98

DOCK5 (dedicator of cytokinesis 5)
- mean correlation with KSR1 profile: 0.0489
- mean distance from KSR1 profile: 1.87

LTBP2 (latent transforming growth factor beta binding protein 2)
- mean correlation with KSR1 profile: 0.812
- mean distance from KSR1 profile: 1.73

Copied from the list:
For “mean correlation with KSR1 profile”, DOCK5 (dedicator of cytokinesis 5) is entered as 0.0489
Result of CLN3 (CLN3 lysosomal/endosomal transmembrane protein, battenin) under “mean correlation with KSR1 profile”: -0.207
